Results deposited as PubChem BioAssay AID1224830 (NIAID, 2016)
This is an unselected part of about 18,000 reagents tested. About 2,900 of all reagents (16%) were called active. 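Calls are made per well; low scores hint the gene aids the LPS response, high scores that it dampens it.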 Entries without a mark were called inactive. Repeated entries: four replicate wells of each siRNA pool.

Screen: 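Genes whose knock-down alters the TNF-alpha reporter response to LPS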 (primary screen)
Cell system: human THP-1 monocytic leukaemia cells, TNF dual-luciferase reporter clone, PMA-differentiated to macrophage-like cells
Reagents: siRNA pool against human genes, 50 nM
Time to read-out: LPS for 4 h, given about 3 days after siRNA transfection
Challenge: bacterial LPS (TLR4 ligand), 10 ng/ml
Detection: 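Ratio of firefly to renilla light, scaled to the plate median and expressed as a robust z-score per replicate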
Direction: TNF reporter robust z-score: higher = stronger TNF reporter response to LPS
Call rule: 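a well is active when its z-score exceeds 2.8 or falls below -1.5; control wells carry no call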

no.	gene symbol	TNF reporter robust z-score
1	ACOT1	1.08
2	ACOT1	1.09
3	ACOT1	0.89
4	ACOT1	1.81
5	GOLGA7B	-0.06
6	GOLGA7B	0.79
7	GOLGA7B	0.15
8	GOLGA7B	0.07
9	DDAH2	-2.06 (active)
10	DDAH2	-1.56 (active)
11	DDAH2	-1.21
12	DDAH2	-1.23
13	AHRR	-1.17
14	AHRR	-0.48
15	AHRR	-1.25
16	AHRR	-0.95
17	SEM1	-0.3
18	SEM1	1.51
19	SEM1	0.24
20	SEM1	0.4
21	HERC5	0.4
22	HERC5	0.17
23	HERC5	1.78
24	HERC5	0.5
25	SERPINA13P	-0.95
26	SERPINA13P	-0.6
27	SERPINA13P	-0.26
28	SERPINA13P	-0.77
29	SEC22A	0.07
30	SEC22A	1.1
31	SEC22A	-0.3
32	SEC22A	0.42
33	EML4	-0.73
34	EML4	-0.34
35	EML4	0.11
36	EML4	0.04
37	ZFP64	-1.44
38	ZFP64	-1.18
39	ZFP64	-1.1
40	ZFP64	-1.16
41	GPR82	-0.88
42	GPR82	1.44
43	GPR82	0.09
44	GPR82	-0.15
45	TKT	0.68
46	TKT	0.38
47	TKT	-0.68
48	TKT	-0.25
49	CFL2	-1.38
50	CFL2	-0.69
51	CFL2	-1.19
52	CFL2	-0.96
53	ZC3HC1	-0.45
54	ZC3HC1	1.24
55	ZC3HC1	-0.3
56	ZC3HC1	-0.09
57	KRT72	-0.37
58	KRT72	-0.43
59	KRT72	0.95
60	KRT72	0.73
61	TEX15	-0.66
62	TEX15	0.1
63	TEX15	-0.1
64	TEX15	-0.12
65	CYRIB	-0.26
66	CYRIB	0.06
67	CYRIB	-0.32
68	CYRIB	-0.25
69	MN1	-0.68
70	MN1	0.23
71	MN1	-0.63
72	MN1	0.92
73	SAMSN1	-0.48
74	SAMSN1	-1.21
75	SAMSN1	-1.66 (active)
76	SAMSN1	-0.3
77	TEK	-0.71
78	TEK	1.68
79	TEK	-0.05
80	TEK	0.69
81	SRCAP	-0.46
82	SRCAP	0.97
83	SRCAP	-0.29
84	SRCAP	0.94
85	KCNK4	-0.03
86	KCNK4	0.62
87	KCNK4	0.28
88	KCNK4	-0.21
89	CT47A2	0.38
90	CT47A2	-0.71
91	CT47A2	-0.04
92	CT47A2	-0.27
93	TMEM151A	1.88
94	TMEM151A	0.65
95	TMEM151A	0.72
96	TMEM151A	0.73
97	KRTAP4-11	-0.62
98	KRTAP4-11	-0.71
99	KRTAP4-11	-0.54
100	KRTAP4-11	-0.67
101	TYSND1	-0.63
102	TYSND1	-0.02
103	TYSND1	0.31
104	TYSND1	-0.42
105	SLC36A1	-0.94
106	SLC36A1	-0.59
107	SLC36A1	-0.23
108	SLC36A1	-0.36
109	QPRT	1.26
110	QPRT	0.86
111	QPRT	1.06
112	QPRT	2.12
